# Reference: PubChem BioAssay AID1471 (National Center for Advancing Translational Sciences (NCATS), 2008)
# Values joined by “and” are separate entries in the source; they are usually repeats but may differ in a detail not shown here. Equal entries are not always repeated. In all, about 230,000 compounds went through this assay and about 310 (0.13%) were called active. The inconclusive results got no clear call from the source; some entries with a clear call stand among them for comparison. The call rests on the fitted dose curve; in most records, active means well fitted activation curve with a large enough effect; inconclusive means small, poorly fitted or top-dose-only effect; inactive means no such curve, though single readings can be large or run the other way. Potencies of inconclusive entries are doubtful fits and often do not repeat.
# Experiment: qHTS Multiplex Assay to Identify Dual Action Probes in a Cell Model of Huntington: Cytoprotection (ATP); further: nearly all actives have a fitted effect of over 45% in size;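 on cytoprotection (ATP increase): toxic huntingtin expression switched on by the ecdysone agonist tebufenozide; % of control where 0% means no effect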
# Conditions: PC12 HTT-Q103 induced, ATP luminescence, 40 h; cytoprotection (ATP increase): at 56.4 µM (top of the series) unless noted
# Procedure, shortened: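 Readout: ATPlite luminescence (ATP level). Model: stable PC12, inducible Htt exon1 Q103-GFP. Inducer: tebufenozide, 100 nM final. Compounds: dose series. No G418 in medium.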
# Potency means the concentration at half of the fitted maximal effect.
SMILES,cytoprotection (ATP increase),Potency
O=C(Cn1cc(C(F)(F)F)cc(Cl)c1=O)Nc1cccc(Cl)c1,inactive: -24.1% [at 1.9 µM],
COc1ccccc1/C=c1\sc2nc(-c3cccs3)nn2c1=O,inactive: -10.8% [at 0.074 µM],
Cn1c(=O)n(Cc2ccccc2F)c(=O)c2c1nc1n2CCN1Cc1ccco1,inactive: -29.3%,
Cn1cc(-c2nc3cncnc3n(-c3ccccc3)c2=O)c2ccccc21,,"inconclusive: 10 µM [activator, partial curve]"
COc1ccc(C(=O)NC2CCN(S(=O)(=O)Cc3ccccc3)CC2)c(OC)c1,,"inconclusive: 2.51 µM [activator, full curve, poor fit]"
Cn1c(SCc2ccc(Cl)cc2)nnc1C1CC1,,"inconclusive: 5.62 µM [activator, single point]"
O=C1N/C(=C\c2ccc(N3CCOCC3)c(F)c2)C(=O)N1Cc1ccccc1,inactive: -46.9%,
CC(Cn1cnc2ccccc21)C(=O)O (stereo not given),,"inconclusive: 2.82 µM [activator, single point]"
O=C(CN1CCN(c2ncc(C(F)(F)F)cc2Cl)CC1)N1CCN(c2ncc(C(F)(F)F)cc2Cl)CC1,,"inconclusive: 3.98 µM [activator, single point]"
CCOC(=O)C1=C(C)N(CC)C(=S)NC1c1ccccc1OC(F)F (stereo not given),,"inconclusive: 0.355 µM [activator, full curve]"
N#Cc1c2n(c3c(=S)nc[nH]c13)CCCCC2,,"inconclusive: 31.6 µM [activator, single point]"
O=C(NNS(=O)(=O)c1ccc(F)cc1F)C1Cc2c(ccc3ccccc23)O1 (stereo not given),,"inconclusive: 25.1 µM [activator, single point]"
COc1ccc(N2CCN(C(=O)c3ccccc3)CC2)c([N+](=O)[O-])c1,inactive: 13.3% [at 10 µM],
CCOC(=O)c1cc(-c2ccc(C)cc2)n(CCC(=O)NCCCOC)c1C,inactive: 10.3%,
Cc1cn2c(=O)c3ccccc3nc2n2c(=O)c3ccccc3nc12,,"inconclusive: 35.5 µM [activator, single point]"
CCSC(=N)N,,"inconclusive: 0.447 µM [activator, single point]"
COc1cc(C(=O)N/N=C/c2ccc(OC(=O)N3CCOCC3)cc2)cc(OC)c1OC,,"inconclusive: 5.62 µM [activator, single point]"
CCCCC[C@H](O)/C=C/[C@@H]1[C@@H](C/C=C\CCCC(=O)O)[C@@H](O)C[C@H]1O,,"inconclusive: 5.62 µM [activator, single point] and inconclusive: 316 nM [activator, full curve, poor fit]"
Cc1ccc(-n2nc(C)cc2NC(=O)c2ccc(C)s2)cc1,,"inconclusive: 5.62 µM [activator, single point]"
Cc1cc(S(=O)(=O)NC2CCCCC2)ccc1OCC(=O)NCc1ccccn1,inactive: 3.33% [at 1.9 µM],

SMILES,cytoprotection (ATP increase),Potency
CCOC(=O)c1c(CC(C)C)csc1NC(=O)CCl,,"inconclusive: 1.26 µM [activator, single point]"
S=C(NCc1ccco1)NC1CCCc2ccccc21 (stereo not given),,"inconclusive: 3.16 µM [activator, single point]"
CCC1(C(=O)OC)NC(c2ccco2)C2C(=O)N(c3ccccc3)C(=O)C21 (stereo not given),inactive: -1.23%,
O=C(CCc1ccc(S(=O)(=O)NC2CCCCC2)cc1)NCc1cccnc1,,"inconclusive: 3.16 µM [activator, single point]"
CC(C)Sc1ccc(C(=O)Nc2ccc(F)cc2F)cn1,,"inconclusive: 5.62 µM [activator, single point]"
O=C(Nc1ccc(S(=O)(=O)N2CCOCC2)cc1)c1ccc(CN2CCc3ccccc3C2)cc1,inactive: -76.9%,
COc1ccc(CN(CCN(C)C)c2ccccn2)cc1,,"inconclusive: 0.1 µM [activator, full curve]"
O=C(CCc1ccccc1)Nc1ccccc1,,"inconclusive: 3.55 µM [activator, single point]"
CCOc1ccc(CC(=NCCc2ccccc2)C2=C(O)CC(C)(C)CC2=O)cc1OCC,,"inconclusive: 0.891 µM [activator, single point]"
COc1cc(CNCc2ccco2)ccc1OCc1ccccc1,,"inconclusive: 5.01 µM [activator, single point]"
COc1ccccc1CCn1c(=O)c(-c2ccc(F)cc2)nc2cncnc21,,"inconclusive: 39.8 µM [activator, single point]"
CN(Cc1cccnc1)C(=O)CC1C(=O)NCCN1Cc1ccc(-c2ccccc2)cc1 (stereo not given),inactive: -27%,
NNC(=O)c1ccc(-c2ccccc2F)cc1,inactive: 14.6% [at 10 µM],
COc1cccc(-n2nc(C(=O)O)c3ccccc3c2=O)c1,inactive: 4.7% [at 10 µM],
COc1ccc(C2C(C(=O)N3CCCC3)c3cc(OC)c(OC)cc3C(=O)N2C)cc1 (stereo not given),,"inconclusive: 1.26 µM [activator, single point]"
COC(=O)[C@@]1(Cc2ccc(F)cc2)[C@H]2c3cc(C(=O)N(C)C)n(Cc4ccc(S(C)(=O)=O)cc4)c3C[C@H]2CN1C(=O)c1ccccc1,,"inconclusive: 31.6 µM [activator, single point]"
COc1ccc2nc(SCC(=O)Nc3c(C)cccc3C)[nH]c2c1,inactive: 12.2%,
Cc1sc(NC(=O)c2ccco2)c(C(c2ccccc2)N2CCC(C)CC2)c1C (stereo not given),,"inconclusive: 35.5 µM [activator, single point]"
COc1cccc(CNC(=S)Nc2cc(OC)ccc2OC)c1,,"inconclusive: 35.5 µM [activator, single point]"
Cc1scc2c1N(C(=O)CN1CCN(C)CC1)c1ccccc1NC2=O,,"inconclusive: 15.8 µM [activator, partial curve]"

SMILES,cytoprotection (ATP increase),Potency
Cc1ccc(S(=O)(=O)NC2(C(F)(F)F)C(=O)Nc3c2c(=O)[nH]c(=O)n3-c2ccccc2)cc1 (stereo not given),,"inconclusive: 5.62 µM [activator, single point]"
CCNc1ncc2nc(-c3ccccc3)c(=O)n(CCOC)c2n1,inactive: -3.51%,
Cn1nc(C(F)(F)F)c(C(=O)Nc2ccc(F)cc2F)c1Sc1ccc(C(F)(F)F)cc1,,"inconclusive: 6.31 µM [activator, single point]"
COc1cc(S(=O)(=O)NCc2ccncc2)c(OC)cc1Cl,,"inconclusive: 0.005 µM [activator, full curve, poor fit]"
c1ccc(C2CN3CCSC3=N2)cc1 (stereo not given),,"inactive and inconclusive: 112 nM [activator, full curve, poor fit]"
O=C(O)c1cc(-c2ccc(/C=N/Nc3ccc([N+](=O)[O-])cn3)o2)ccc1Cl,,"inconclusive: 35.5 µM [activator, single point]"
Cc1c(Cl)cccc1NC(=S)N1CCc2ccccc2C1,,"inconclusive: 0.005 µM [activator, partial curve, poor fit]"
Nc1cc(S(=O)(=O)C(F)(F)F)ccc1C(=O)O,,"inconclusive: 4.47 µM [activator, single point]"
C=C(C)c1cccc(C(C)(C)NC(=O)NCc2ccncc2)c1,,"inconclusive: 1.26 µM [activator, partial curve]"
CC(=O)OC1CC2C(C)(C)CCC(=O)[C@@]2(C)C2CC[C@@]3(C)C(c4ccoc4)OC(=O)C4OC43[C@]12C (stereo not given in full),inactive: 2.67%,
COc1ccc(CC(=O)N2CCN(C(=O)Cc3ccc(OC)cc3)CC2)cc1,inactive: 2.38% [at 0.074 µM],
CC(CCc1ccccc1)NC(=O)CN1CCN(Cc2ccccc2)C1=O (stereo not given),inactive: -0.862%,
CCOc1ccc(Nc2nc(N3CCCC3)nc(N3CCN(c4ccc(OC)cc4)CC3)n2)cc1,,"inconclusive: 35.5 µM [activator, single point]"
CCN(CC)C(=O)Cn1cc(S(=O)(=O)CC(=O)Nc2ccc3c(c2)OCCO3)c2ccccc21,,"inconclusive: 35.5 µM [activator, single point]"
Cc1nn(-c2ccc(C(=O)O)cc2)c(C)c1Oc1ccccc1O,inactive: -2.14%,
CCNC(=S)N1C2CCC1CC(NC(=O)Nc1ccc(C(=O)OCC)cc1)C2 (stereo not given),,"inconclusive: 6.31 µM [activator, single point]"
Nc1nc2nc3c(nc2c(=O)[nH]1)CN(c1ccc(C(=O)O)cc1)C3=O,inactive: -0.988% [at 10 µM],
COc1ccc(C(=O)NCC(=O)N2CCc3ccccc3C2)cc1,inactive: -23.9%,
COc1ccc(C(=O)N2CCC3(CC2)CN(c2cccc(-c4ccccc4)c2)C3)cc1,,"inconclusive: 0.282 µM [activator, full curve, poor fit]"
Cc1onc(C(=O)N2CCOCC2)c1[N+](=O)[O-],,"inconclusive: 1.26 µM [activator, single point]"
